# These are yes or no findings as the source states them, for the method shown. Binding seen in cells or lysates may run through a third protein. Binding can be weak; no strength is given. Tags and fused reporters may be left off the sequences shown.
# T1: EDEM1 wild type (mouse), HA-tagged (mouse) (UniProt Q925U4)
# T1 sequence: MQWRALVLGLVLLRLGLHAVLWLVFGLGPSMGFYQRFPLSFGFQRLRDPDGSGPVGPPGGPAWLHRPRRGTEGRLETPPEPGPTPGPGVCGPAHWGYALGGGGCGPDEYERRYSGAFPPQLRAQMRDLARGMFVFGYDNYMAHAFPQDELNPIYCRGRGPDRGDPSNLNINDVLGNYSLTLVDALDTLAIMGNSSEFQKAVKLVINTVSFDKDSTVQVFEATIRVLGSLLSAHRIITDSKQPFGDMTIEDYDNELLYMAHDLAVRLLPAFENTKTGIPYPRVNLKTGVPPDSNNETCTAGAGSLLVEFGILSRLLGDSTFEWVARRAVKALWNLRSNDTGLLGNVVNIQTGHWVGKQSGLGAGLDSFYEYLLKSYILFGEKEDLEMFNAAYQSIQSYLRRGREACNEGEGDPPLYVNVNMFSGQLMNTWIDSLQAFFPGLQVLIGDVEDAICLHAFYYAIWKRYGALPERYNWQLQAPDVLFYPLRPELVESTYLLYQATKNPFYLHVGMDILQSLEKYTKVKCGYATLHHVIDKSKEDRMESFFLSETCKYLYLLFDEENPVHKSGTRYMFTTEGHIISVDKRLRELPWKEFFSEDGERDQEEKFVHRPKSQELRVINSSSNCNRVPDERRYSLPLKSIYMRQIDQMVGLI
# Columns and labels:
# [1] = molecular target: T1, EDEM1 wild type (mouse), HA-tagged (mouse); assay: co-IP; HEK 293T cells co-transfected with tyrosinase and EDEM1 constructs, [35S]-methionine/cysteine pulse 20 or 30 min, chase up to 2 h, lysed in 2% CHAPS, 50 mM Hepes, 200 mM NaCl, pH 7.5; immunoprecipitated with anti-tyrosinase (T311) or anti-EDEM1 (or HA) antibodies, 24 h at 4°C; SDS-PAGE and autoradiography
# [2] = molecular target: truncated soluble tyrosinase lacking its transmembrane domain; assay: as above
binding [1],binding [2],Molecule
binds,,truncated soluble tyrosinase lacking its transmembrane domain (domain or fragment)
,no binding,"EDEM1-ΔIDR (mouse EDEM1 lacking the ID region, amino acids 48-119), HA-tagged (protein, UniProt Q925U4) MQWRALVLGLVLLRLGLHAVLWLVFGLGPSMGFYQRFPLSFGFQRLRQLRAQMRDLARGMFVFGYDNYMAHAFPQDELNPIYCRGRGPDRGDPSNLNINDVLGNYSLTLVDALDTLAIMGNSSEFQKAVKLVINTVSFDKDSTVQVFEATIRVLGSLLSAHRIITDSKQPFGDMTIEDYDNELLYMAHDLAVRLLPAFENTKTGIPYPRVNLKTGVPPDSNNETCTAGAGSLLVEFGILSRLLGDSTFEWVARRAVKALWNLRSNDTGLLGNVVNIQTGHWVGKQSGLGAGLDSFYEYLLKSYILFGEKEDLEMFNAAYQSIQSYLRRGREACNEGEGDPPLYVNVNMFSGQLMNTWIDSLQAFFPGLQVLIGDVEDAICLHAFYYAIWKRYGALPERYNWQLQAPDVLFYPLRPELVESTYLLYQATKNPFYLHVGMDILQSLEKYTKVKCGYATLHHVIDKSKEDRMESFFLSETCKYLYLLFDEENPVHKSGTRYMFTTEGHIISVDKRLRELPWKEFFSEDGERDQEEKFVHRPKSQELRVINSSSNCNRVPDERRYSLPLKSIYMRQIDQMVGLI"
,binds,"EDEM1 wild type (mouse), HA-tagged (protein, UniProt Q925U4 1-652) MQWRALVLGLVLLRLGLHAVLWLVFGLGPSMGFYQRFPLSFGFQRLRDPDGSGPVGPPGGPAWLHRPRRGTEGRLETPPEPGPTPGPGVCGPAHWGYALGGGGCGPDEYERRYSGAFPPQLRAQMRDLARGMFVFGYDNYMAHAFPQDELNPIYCRGRGPDRGDPSNLNINDVLGNYSLTLVDALDTLAIMGNSSEFQKAVKLVINTVSFDKDSTVQVFEATIRVLGSLLSAHRIITDSKQPFGDMTIEDYDNELLYMAHDLAVRLLPAFENTKTGIPYPRVNLKTGVPPDSNNETCTAGAGSLLVEFGILSRLLGDSTFEWVARRAVKALWNLRSNDTGLLGNVVNIQTGHWVGKQSGLGAGLDSFYEYLLKSYILFGEKEDLEMFNAAYQSIQSYLRRGREACNEGEGDPPLYVNVNMFSGQLMNTWIDSLQAFFPGLQVLIGDVEDAICLHAFYYAIWKRYGALPERYNWQLQAPDVLFYPLRPELVESTYLLYQATKNPFYLHVGMDILQSLEKYTKVKCGYATLHHVIDKSKEDRMESFFLSETCKYLYLLFDEENPVHKSGTRYMFTTEGHIISVDKRLRELPWKEFFSEDGERDQEEKFVHRPKSQELRVINSSSNCNRVPDERRYSLPLKSIYMRQIDQMVGLI"
,binds,"EDEM1-AVV (mouse EDEM1 triple mutant D365A/E488V/T574V), HA-tagged (protein, UniProt Q925U4 1-652) MQWRALVLGLVLLRLGLHAVLWLVFGLGPSMGFYQRFPLSFGFQRLRDPDGSGPVGPPGGPAWLHRPRRGTEGRLETPPEPGPTPGPGVCGPAHWGYALGGGGCGPDEYERRYSGAFPPQLRAQMRDLARGMFVFGYDNYMAHAFPQDELNPIYCRGRGPDRGDPSNLNINDVLGNYSLTLVDALDTLAIMGNSSEFQKAVKLVINTVSFDKDSTVQVFEATIRVLGSLLSAHRIITDSKQPFGDMTIEDYDNELLYMAHDLAVRLLPAFENTKTGIPYPRVNLKTGVPPDSNNETCTAGAGSLLVEFGILSRLLGDSTFEWVARRAVKALWNLRSNDTGLLGNVVNIQTGHWVGKQSGLGAGLASFYEYLLKSYILFGEKEDLEMFNAAYQSIQSYLRRGREACNEGEGDPPLYVNVNMFSGQLMNTWIDSLQAFFPGLQVLIGDVEDAICLHAFYYAIWKRYGALPERYNWQLQAPDVLFYPLRPVLVESTYLLYQATKNPFYLHVGMDILQSLEKYTKVKCGYATLHHVIDKSKEDRMESFFLSETCKYLYLLFDEENPVHKSGTRYMFTVEGHIISVDKRLRELPWKEFFSEDGERDQEEKFVHRPKSQELRVINSSSNCNRVPDERRYSLPLKSIYMRQIDQMVGLI"

# Source: paper PMC3414498
